The target in the experiment is T1, GST-DIP2B-Caic (UniProt Q3UH60).
T1 sequence: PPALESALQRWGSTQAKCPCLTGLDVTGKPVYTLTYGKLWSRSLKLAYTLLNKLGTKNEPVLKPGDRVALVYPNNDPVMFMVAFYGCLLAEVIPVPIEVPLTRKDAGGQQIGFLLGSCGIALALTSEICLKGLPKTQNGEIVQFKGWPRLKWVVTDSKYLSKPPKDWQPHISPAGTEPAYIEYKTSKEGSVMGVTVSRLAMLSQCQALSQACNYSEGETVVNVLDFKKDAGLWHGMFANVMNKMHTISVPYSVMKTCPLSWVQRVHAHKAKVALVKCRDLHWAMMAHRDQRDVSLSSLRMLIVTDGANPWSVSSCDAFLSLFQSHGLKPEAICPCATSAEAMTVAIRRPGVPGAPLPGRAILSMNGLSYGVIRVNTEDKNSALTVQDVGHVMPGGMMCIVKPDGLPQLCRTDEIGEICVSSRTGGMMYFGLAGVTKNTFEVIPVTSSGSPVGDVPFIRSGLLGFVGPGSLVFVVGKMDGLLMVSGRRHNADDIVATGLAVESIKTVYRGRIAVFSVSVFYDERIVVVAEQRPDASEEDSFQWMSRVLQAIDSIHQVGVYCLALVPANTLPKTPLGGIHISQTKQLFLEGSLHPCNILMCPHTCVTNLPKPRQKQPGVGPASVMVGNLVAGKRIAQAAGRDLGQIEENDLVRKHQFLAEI
The experiment can be described thus: pull-down; purified tubulin incubated with GST-DIP2B-Caic and GST proteins as bait; Western blotting; both purified.

Among the data in paper PMC7045754 are binding values, retold here.

No constants are given. Whether binding was seen depends on the method and setting. Binding can be weak; no strength is given. Sequences can lack the tags named with a protein.

Turning to Purified tubulin, the binding entry is reported as “binds”.
